Measured values: PubChem BioAssay AID493014 (National Center for Advancing Translational Sciences (NCATS), 2011)
Several values for one entry are separate records, joined by “and”; a condition that tells them apart may be missing. Equal values may be shown once. This is one part of the list. The main result of the screen is listed elsewhere. These columns were measured beside it and carry no call. The list favours compounds with an active or inconclusive main result. Words in brackets tell the shape of the fitted curve; partial curves, single points and poor fits give uncertain potencies.

Assay: qHTS Assay to Find Inhibitors of Chronic Active B-Cell Receptor Signaling
Settings: ABC-DLBCL IkBa-CBG/CBR reporter, luminescence ratio (green luciferase fused to IkBa over red control in TMD8 lymphoma cells), 4 h
Method in brief: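 Compounds up to 46 uM were incubated four hours with TMD8 cells whose green CBG68 luciferase is fused to IkappaBalpha; red CBR luminescence normalised the signal, and concentration-effect curves were fitted to fusion, red and ratio data.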

[1] = measured here: CBR red luminescence, cell number
[2] = measured here: IkBa-CBG green luminescence

COCCNC(=O)Cn1nc(C)c2ccccc2c1=O
AC50 [1]: 0.112 µM [falling, full curve, poor fit]

COc1ccc(CCC(=O)NC2CC(=O)N(c3ccc(F)cc3)C2)cc1 (stereo not given)
AC50 [1]: 8.91 µM [rising, partial curve, poor fit]

O=C(NCCc1c[nH]c2ccccc12)c1ccc(F)cc1F
AC50 [1]: 3.55 µM [falling, partial curve, poor fit]

COc1ccccc1N=C1SC(C)CN1C(=O)C1CCC1 (stereo not given)
AC50 [1]: 2.82 µM [falling, partial curve, poor fit]

COc1ccc(C(c2sc3ncnn3c2O)N2CCN(c3ccccc3F)CC2)cc1OC (stereo not given)
AC50 [1]: 20.6 µM [falling, single point]

CCOC(=O)C(=O)c1c(C)cc2ccccn12
AC50 [1]: 12.6 µM [rising, single point] | AC50 [2]: 15.8 µM [falling, single point]

O=C(c1cccs1)N1CCN(C2CCN(Cc3ccccc3)CC2)CC1
AC50 [1]: 0.731 µM [rising, partial curve, poor fit]

CCN1CCN(C(=O)CN(c2cccc(Br)c2)S(=O)(=O)c2ccccc2)CC1
AC50 [1]: 3.26 µM [rising, partial curve, poor fit]

CC1(C)c2ccccc2-n2c1cc1oc(=O)cc(O)c1c2=O
AC50 [1]: 3.55 µM [falling, single point]

COC(=O)C(/C=N/OCc1ccc([N+](=O)[O-])cc1)NC(=O)c1ccccc1 (stereo not given)
AC50 [1]: 18.4 µM [rising, partial curve, poor fit]

COc1ccc(OCC(=O)OC2CCN(C)CC2)cc1
AC50 [1]: 0.00411 µM [falling, full curve, poor fit]

O=C(CCl)Nc1cccc(-c2cnc3ccccc3n2)c1
AC50 [1]: 4.11 µM [falling, full curve, poor fit]

COc1ccc(-n2cnnc2SCC(=O)c2ccc(S(=O)(=O)N3CCOCC3)cc2)cc1
AC50 [1]: 35.5 µM [rising, single point]

Cc1cc2cc(CNC(=O)c3cccs3)ccc2n1C
AC50 [1]: 6.51 µM [rising, single point]

CC(C)c1nnc(NC(=O)C2CCN(C(=O)c3ccco3)CC2)s1
AC50 [1]: 17.8 µM [rising, partial curve, poor fit]

Nc1nnn(CC(=O)N/N=C/c2ccco2)n1
AC50 [1]: 25.1 µM [falling, single point]

O=C1CC(NCc2cccs2)C(=O)N1c1ccc(Cl)cc1 (stereo not given)
AC50 [1]: 3.66 µM [falling, partial curve, poor fit]

CSc1ccc(C(=O)/C=C/c2ccc(N)cc2)cc1
AC50 [1]: 29.1 µM [falling, single point]

Cc1cccc(C2=NN(c3ccccc3)[C@@H](C(=O)N3CCOC3=O)[C@@H]2c2ccc(Cl)cc2)c1
AC50 [1]: 18.4 µM [rising, partial curve, poor fit]

Cc1ccc2oc(=O)c3cnn(CC(=O)N(CCN(C)C)Cc4ccco4)c3c2c1
AC50 [1]: 13 µM [falling, partial curve, poor fit]

CC(=O)c1c(CSc2ccccc2)oc2ccc(O)c(CN(C)C)c12
AC50 [1]: 12.6 µM [falling, partial curve]

Cc1ccc(Cn2c([N+](=O)[O-])cnc2C)cc1
AC50 [1]: 29.1 µM [rising, single point]

CCOc1cccc2sc(N(CCN(C)C)C(=O)/C=C/c3cccs3)nc12
AC50 [1]: 17.8 µM [falling, single point]

COc1cccc(C(CC(=O)Nc2cccc3ccccc23)NC(=O)c2ccccc2)c1 (stereo not given)
AC50 [1]: 12.6 µM [rising, partial curve, poor fit]

CC(C)CC(NC(=O)C(NC(=O)C1OC2OC(C)(C)OC2C2OC(C)(C)OC12)C(C)C)C(=O)O (stereo not given)
AC50 [1]: 31.6 µM [rising, single point]

COC(=O)c1c(C)oc2ccc(N(C(=O)c3ccncc3)S(=O)(=O)c3ccccc3)cc12
AC50 [1]: 1.26 µM [falling, full curve, poor fit]

O=C(NCCc1nc2ccccc2[nH]1)/C(=C/c1ccc(F)cc1)NC(=O)c1ccco1
AC50 [1]: 7.94 µM [falling, partial curve]

COc1ccc(CCNC(=O)C(=O)c2cn(CC(=O)N3CCOCC3)c3ccccc23)cc1OC
AC50 [1]: 1.58 µM [falling, full curve, poor fit]

CCOC(=O)Cn1cc(C#N)c2cccc(CC)c21
AC50 [1]: 35.5 µM [rising, single point]

CCN1CCN(c2cc(N3CCc4ccccc4C3)c(F)cc2[N+](=O)[O-])CC1
AC50 [1]: 29.1 µM [falling, single point]

Cc1cccc(C)c1NS(=O)(=O)c1ccc(NC(=O)c2ccc(Cl)c([N+](=O)[O-])c2)cc1
AC50 [1]: 4.47 µM [falling, full curve, poor fit]

CCC(=O)N1CCc2cc(Br)cc(S(=O)(=O)N3CCC(C(=O)Nc4ccc(OC)cc4)CC3)c21
AC50 [1]: 14.1 µM [rising, partial curve]

CCN1CCN(C(=S)c2ccc(Cl)c(Cl)c2)CC1
AC50 [1]: 2.06 µM [falling, partial curve, poor fit] | AC50 [2]: 3.26 µM [rising, partial curve, poor fit]

COc1ccc(NC(=O)CSc2nc(-c3cccs3)cc(C(F)(F)F)n2)cc1OC
AC50 [1]: 15.8 µM [rising, partial curve, poor fit]

CCOC(=O)c1ccc(N/C=C/C(=O)c2ccc(OC)c(OC)c2)cc1
AC50 [1]: 1.12 µM [falling, full curve, poor fit]

O=C(NNC(=O)C(c1ccccc1)c1ccccc1)c1ccccn1
AC50 [1]: 3.26 µM [rising, full curve] | AC50 [2]: 16.4 µM [falling, partial curve, poor fit]

CCOCc1nnc(NC(=O)COc2ccc3c(c2)OCO3)s1
AC50 [1]: 0.562 µM [falling, full curve, poor fit]

Cc1ccc(NC(=O)CCC(=O)N/N=C/c2coc3ccccc3c2=O)cc1
AC50 [1]: 25.1 µM [falling, single point]

Cc1sc(Nc2ccc([N+](=O)[O-])cc2)nc1-c1c(C)n(C)n(-c2ccccc2)c1=O
AC50 [1]: 3.16 µM [rising, single point]

c1ccc(-c2n[nH]c3ccccc23)cc1
AC50 [1]: 6.51 µM [falling, single point]

CC(C)(C)C(=O)O/N=C(\N)c1ccc(-c2csnn2)cc1
AC50 [1]: 7.94 µM [rising, partial curve]

Cc1ccc(C)c(-c2[nH]ncc2CN2CCCC(CO)(Cc3ccccc3C)C2)c1 (stereo not given)
AC50 [1]: 15.8 µM [falling, partial curve, poor fit]

Nc1c(C(=O)Nc2ccc3c(c2)OCCO3)nnn1Cc1ccccc1Cl
AC50 [1]: 6.51 µM [falling, partial curve, poor fit]

CC(=O)c1cc2c(cc1N/C(=N/S(=O)(=O)c1ccc(C)cc1)c1ccccc1)OCO2
AC50 [1]: 11.2 µM [falling, partial curve, poor fit]

Cc1nc2ccccc2cc1C(=O)N/N=C/c1cccc([N+](=O)[O-])c1
AC50 [1]: 1.84 µM [rising, partial curve, poor fit]

CCOC(=O)C1CCCN(S(=O)(=O)c2ccc(F)c(C(=O)Nc3ccc(F)c(F)c3)c2)C1 (stereo not given)
AC50 [1]: 7.94 µM [falling, partial curve]

COc1cccc(CNC(=O)C2CCCN(c3nn4c(=O)cc(C)nc4s3)C2)c1 (stereo not given)
AC50 [1]: 11.2 µM [rising, partial curve]

CSCC[C@H](NC(=O)[C@@H]1Cc2ccccc2CN1)C(=O)Nc1cccc(C)c1
AC50 [1]: 20 µM [falling, single point]

CCCn1c(=S)[nH]c2cc(C(=O)NCC3CCCO3)ccc2c1=O (stereo not given)
AC50 [1]: 0.259 µM [falling, full curve]

Cc1cccc(C(=O)O/N=C2\CCS(=O)(=O)c3sccc32)c1
AC50 [1]: 12.6 µM [falling, partial curve]

CCc1ccc(CN(C)CCc2ccccn2)cc1
AC50 [1]: 23.1 µM [rising, single point]

COCCn1c(Cc2ccccc2)nnc1SC(C)C(=O)NC1CC1 (stereo not given)
AC50 [1]: 0.731 µM [rising, partial curve, poor fit]

Cc1cc(N2CCN(c3ccccc3)CC2)n2cc(-c3ccccc3)nc2n1
AC50 [1]: 17.8 µM [falling, single point]

CCSc1nnc(NC(=O)c2nc3nc(C)cc(C)n3n2)s1
AC50 [1]: 10 µM [falling, partial curve]

Cc1cccc(SCc2noc(C(=O)NC(C)C)c2C(=O)O)c1
AC50 [1]: 35.5 µM [falling, single point]

CS(=O)(=O)c1ccc(Sc2nc3ccccc3[nH]2)c([N+](=O)[O-])c1
AC50 [1]: 14.1 µM [falling, partial curve]

NC(=O)c1cccc(-c2noc(-c3ccccc3F)n2)c1
AC50 [1]: 8.2 µM [falling, partial curve] and 13 µM [falling, partial curve]

O=C(c1ccccc1)c1cc(-c2ccccn2)c(N2CCOCC2)s1
AC50 [1]: 0.794 µM [falling, full curve, poor fit]

COCc1cc(=O)n2c([nH]c3ccccc32)c1C#N
AC50 [1]: 0.731 µM [falling, full curve]

Cc1ccc2[nH]c3c(c2c1)CN(C(=O)CN1CCN(Cc2ccc4c(c2)OCO4)CC1)CC3
AC50 [1]: 28.2 µM [falling, single point]

Nc1cc2c([N+](=O)[O-])cccc2o1
AC50 [1]: 5.01 µM [falling, partial curve, poor fit]

Cc1ccc(S(=O)(=O)NCCNC(=O)c2cc(OCC(F)(F)F)ccc2OCC(F)(F)F)cc1
AC50 [1]: 15.8 µM [rising, partial curve]
